Some of the results follow.
Key:
Test in all cases: log2 fold change, soluble protein after heating vs DMSO (PISA); higher = thermal stabilisation; K562 lysate, 10 uM; active = over 0.2 and 3.5 SD of the protein, either way, in both replicates (recomputed)
erlotinib = compound: C#Cc1cccc(Nc2ncnc3cc(OCCOC)c(OCCOC)cc23)c1 [erlotinib]
Procedure, shortened: (§1)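 Pellets of K562 cells were dounce-homogenised in PBS pH 7.4 with 1 mM MgCl2, and the crude extract was held at 1 mg/mL protein for a 30 min treatment with 10 μM compound. Aliquots were heated for 3 min over 48°C-58°C and pooled before NP-40 was added to 0.5% at 4°C. The supernatant from 21,000xg for 90 min was quantified by TMTpro 16plex LC-MS/MS with channel sums equalised. Values are reported from duplicates as log-two fold change in thermal stability relative to solvent controls.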

Amino acid sequences for entries named in this document (tags omitted). A change or cut given only in a name is not applied to a line headed by its entry.
UniProt Q9Y3C1: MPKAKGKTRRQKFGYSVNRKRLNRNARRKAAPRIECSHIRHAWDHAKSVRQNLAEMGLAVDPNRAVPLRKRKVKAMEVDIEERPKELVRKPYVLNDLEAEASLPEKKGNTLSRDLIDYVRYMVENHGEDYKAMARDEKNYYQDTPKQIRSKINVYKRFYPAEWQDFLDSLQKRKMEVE
UniProt Q8IVI9: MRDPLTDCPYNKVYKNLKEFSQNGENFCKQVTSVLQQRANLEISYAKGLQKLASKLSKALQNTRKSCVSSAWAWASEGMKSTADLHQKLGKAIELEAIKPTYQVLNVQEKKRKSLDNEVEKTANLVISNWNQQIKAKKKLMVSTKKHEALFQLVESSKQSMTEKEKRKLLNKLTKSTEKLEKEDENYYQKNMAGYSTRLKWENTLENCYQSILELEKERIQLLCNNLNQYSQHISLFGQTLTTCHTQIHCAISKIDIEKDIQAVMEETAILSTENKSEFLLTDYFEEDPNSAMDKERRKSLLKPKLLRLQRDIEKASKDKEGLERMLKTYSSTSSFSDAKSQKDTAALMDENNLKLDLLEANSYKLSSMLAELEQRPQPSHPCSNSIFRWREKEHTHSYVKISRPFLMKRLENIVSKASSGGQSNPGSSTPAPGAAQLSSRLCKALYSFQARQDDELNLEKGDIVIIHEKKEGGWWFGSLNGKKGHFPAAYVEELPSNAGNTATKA
UniProt Q9H857: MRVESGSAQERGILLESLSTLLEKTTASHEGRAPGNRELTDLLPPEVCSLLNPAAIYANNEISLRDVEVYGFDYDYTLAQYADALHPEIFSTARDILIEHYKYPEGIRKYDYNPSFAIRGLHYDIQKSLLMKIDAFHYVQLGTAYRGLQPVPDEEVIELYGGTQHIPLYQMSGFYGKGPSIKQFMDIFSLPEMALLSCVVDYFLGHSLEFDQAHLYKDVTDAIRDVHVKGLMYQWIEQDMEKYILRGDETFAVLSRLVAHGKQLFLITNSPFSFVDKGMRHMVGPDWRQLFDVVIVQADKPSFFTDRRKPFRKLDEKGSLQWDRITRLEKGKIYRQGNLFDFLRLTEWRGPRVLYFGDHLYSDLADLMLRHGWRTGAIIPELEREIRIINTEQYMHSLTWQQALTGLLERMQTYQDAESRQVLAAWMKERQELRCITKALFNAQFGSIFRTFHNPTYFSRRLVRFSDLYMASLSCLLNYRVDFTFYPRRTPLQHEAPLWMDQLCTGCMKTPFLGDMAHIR
UniProt Q8IVD9: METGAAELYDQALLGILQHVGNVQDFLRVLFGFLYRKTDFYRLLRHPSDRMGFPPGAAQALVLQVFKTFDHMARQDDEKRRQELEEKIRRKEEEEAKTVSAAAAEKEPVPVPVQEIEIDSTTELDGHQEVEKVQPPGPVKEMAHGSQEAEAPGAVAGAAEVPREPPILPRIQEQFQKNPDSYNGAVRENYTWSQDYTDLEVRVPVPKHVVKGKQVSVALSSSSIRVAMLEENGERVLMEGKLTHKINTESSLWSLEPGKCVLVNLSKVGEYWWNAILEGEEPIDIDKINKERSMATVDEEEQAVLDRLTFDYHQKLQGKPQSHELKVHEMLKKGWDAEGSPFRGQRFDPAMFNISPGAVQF
UniProt Q9H8H0: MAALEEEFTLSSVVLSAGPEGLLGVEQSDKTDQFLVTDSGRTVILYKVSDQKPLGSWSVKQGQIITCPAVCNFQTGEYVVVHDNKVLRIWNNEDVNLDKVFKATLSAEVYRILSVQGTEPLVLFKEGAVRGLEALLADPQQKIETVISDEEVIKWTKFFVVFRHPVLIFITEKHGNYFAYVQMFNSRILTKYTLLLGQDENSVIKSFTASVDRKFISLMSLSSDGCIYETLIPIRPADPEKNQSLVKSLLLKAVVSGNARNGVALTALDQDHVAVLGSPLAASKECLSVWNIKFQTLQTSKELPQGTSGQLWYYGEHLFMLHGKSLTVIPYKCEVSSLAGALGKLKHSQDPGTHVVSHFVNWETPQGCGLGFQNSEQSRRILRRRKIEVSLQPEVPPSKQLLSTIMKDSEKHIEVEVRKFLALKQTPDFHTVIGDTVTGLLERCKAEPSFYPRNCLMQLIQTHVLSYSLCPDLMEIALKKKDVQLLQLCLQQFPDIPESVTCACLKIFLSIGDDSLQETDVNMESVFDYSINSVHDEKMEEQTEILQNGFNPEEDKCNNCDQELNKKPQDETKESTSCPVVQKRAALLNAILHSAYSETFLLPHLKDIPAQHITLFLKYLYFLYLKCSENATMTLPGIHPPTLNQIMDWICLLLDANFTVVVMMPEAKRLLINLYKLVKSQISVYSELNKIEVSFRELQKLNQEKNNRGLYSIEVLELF
UniProt Q8NC60: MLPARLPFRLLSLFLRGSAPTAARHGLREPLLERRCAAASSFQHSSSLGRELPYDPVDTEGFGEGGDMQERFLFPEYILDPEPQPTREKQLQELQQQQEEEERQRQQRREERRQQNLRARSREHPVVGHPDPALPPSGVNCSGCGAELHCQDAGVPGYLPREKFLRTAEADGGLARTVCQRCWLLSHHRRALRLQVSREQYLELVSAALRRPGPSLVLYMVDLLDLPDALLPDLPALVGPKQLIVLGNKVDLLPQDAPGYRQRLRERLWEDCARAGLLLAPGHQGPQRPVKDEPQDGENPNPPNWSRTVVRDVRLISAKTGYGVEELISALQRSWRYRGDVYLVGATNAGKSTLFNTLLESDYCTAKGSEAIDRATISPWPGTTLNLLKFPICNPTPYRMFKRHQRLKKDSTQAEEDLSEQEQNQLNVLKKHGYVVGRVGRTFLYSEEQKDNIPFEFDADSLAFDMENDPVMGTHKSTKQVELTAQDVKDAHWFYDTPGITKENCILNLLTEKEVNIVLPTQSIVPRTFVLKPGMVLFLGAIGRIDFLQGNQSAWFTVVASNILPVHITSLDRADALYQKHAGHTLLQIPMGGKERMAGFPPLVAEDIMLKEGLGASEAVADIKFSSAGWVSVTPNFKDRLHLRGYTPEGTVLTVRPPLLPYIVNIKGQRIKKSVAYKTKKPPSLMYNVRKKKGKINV
UniProt Q5SY16: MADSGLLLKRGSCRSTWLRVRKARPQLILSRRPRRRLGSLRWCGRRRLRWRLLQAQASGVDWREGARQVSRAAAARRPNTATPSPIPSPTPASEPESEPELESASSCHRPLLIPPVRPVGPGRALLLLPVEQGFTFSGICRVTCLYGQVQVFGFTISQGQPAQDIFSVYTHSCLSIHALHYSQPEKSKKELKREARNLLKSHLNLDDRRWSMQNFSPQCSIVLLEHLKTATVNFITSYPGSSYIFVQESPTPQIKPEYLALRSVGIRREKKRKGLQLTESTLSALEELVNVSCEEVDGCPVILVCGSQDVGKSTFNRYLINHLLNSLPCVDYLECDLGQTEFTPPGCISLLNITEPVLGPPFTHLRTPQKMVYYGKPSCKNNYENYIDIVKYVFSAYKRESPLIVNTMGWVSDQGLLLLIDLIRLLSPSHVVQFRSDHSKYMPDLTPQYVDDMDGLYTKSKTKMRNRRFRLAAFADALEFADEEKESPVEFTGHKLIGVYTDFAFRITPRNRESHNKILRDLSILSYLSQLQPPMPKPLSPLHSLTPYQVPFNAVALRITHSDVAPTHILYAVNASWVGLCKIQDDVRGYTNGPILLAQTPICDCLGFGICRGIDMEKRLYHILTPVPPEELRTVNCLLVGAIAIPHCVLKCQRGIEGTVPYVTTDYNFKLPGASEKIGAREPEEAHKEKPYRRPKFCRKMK
UniProt P16083: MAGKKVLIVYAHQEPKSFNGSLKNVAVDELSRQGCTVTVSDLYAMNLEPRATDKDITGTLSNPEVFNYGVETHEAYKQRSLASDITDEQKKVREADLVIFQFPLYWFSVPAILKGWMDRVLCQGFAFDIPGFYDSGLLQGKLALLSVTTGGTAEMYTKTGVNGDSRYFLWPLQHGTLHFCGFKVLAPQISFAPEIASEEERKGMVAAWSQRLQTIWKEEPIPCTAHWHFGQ
UniProt Q8WUM0: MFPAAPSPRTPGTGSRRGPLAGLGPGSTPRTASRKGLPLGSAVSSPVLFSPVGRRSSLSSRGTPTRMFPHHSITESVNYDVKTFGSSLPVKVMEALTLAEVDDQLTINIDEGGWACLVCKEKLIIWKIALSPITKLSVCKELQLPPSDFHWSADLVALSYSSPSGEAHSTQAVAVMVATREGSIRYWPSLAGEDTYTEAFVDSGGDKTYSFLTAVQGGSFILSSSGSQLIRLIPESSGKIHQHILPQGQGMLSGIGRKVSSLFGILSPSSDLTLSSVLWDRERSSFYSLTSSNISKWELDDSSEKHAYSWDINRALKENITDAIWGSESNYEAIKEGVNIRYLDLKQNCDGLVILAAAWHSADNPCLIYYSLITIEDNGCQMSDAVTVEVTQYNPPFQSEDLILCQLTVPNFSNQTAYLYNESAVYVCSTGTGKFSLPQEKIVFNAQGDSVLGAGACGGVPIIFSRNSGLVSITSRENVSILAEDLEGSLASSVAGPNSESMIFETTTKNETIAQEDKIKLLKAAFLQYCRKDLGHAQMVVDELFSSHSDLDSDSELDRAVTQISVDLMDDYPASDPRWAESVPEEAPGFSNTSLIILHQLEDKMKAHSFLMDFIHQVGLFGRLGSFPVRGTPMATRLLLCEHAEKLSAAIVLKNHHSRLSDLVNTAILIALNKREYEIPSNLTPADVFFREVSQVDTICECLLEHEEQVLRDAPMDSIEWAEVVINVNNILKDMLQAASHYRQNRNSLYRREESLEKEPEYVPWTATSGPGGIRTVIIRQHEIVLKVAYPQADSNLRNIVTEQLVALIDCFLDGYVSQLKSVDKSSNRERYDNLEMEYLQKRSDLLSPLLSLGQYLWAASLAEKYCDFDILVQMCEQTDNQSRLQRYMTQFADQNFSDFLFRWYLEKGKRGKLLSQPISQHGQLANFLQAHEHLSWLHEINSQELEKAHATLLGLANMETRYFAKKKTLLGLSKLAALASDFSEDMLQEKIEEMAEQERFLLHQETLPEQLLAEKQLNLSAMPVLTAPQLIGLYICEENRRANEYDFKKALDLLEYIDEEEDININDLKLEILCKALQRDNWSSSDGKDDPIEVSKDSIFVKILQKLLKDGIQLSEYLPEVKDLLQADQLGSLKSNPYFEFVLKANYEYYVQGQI
UniProt Q9BW91: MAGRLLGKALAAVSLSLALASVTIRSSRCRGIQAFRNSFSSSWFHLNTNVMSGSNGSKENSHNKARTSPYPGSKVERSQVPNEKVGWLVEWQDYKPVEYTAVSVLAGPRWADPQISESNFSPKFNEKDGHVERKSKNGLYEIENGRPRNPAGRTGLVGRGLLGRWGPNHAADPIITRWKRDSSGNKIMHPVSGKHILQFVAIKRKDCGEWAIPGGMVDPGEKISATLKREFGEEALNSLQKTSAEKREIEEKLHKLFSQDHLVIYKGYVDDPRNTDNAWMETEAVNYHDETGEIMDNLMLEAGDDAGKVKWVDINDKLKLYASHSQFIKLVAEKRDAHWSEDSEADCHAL
UniProt P57740: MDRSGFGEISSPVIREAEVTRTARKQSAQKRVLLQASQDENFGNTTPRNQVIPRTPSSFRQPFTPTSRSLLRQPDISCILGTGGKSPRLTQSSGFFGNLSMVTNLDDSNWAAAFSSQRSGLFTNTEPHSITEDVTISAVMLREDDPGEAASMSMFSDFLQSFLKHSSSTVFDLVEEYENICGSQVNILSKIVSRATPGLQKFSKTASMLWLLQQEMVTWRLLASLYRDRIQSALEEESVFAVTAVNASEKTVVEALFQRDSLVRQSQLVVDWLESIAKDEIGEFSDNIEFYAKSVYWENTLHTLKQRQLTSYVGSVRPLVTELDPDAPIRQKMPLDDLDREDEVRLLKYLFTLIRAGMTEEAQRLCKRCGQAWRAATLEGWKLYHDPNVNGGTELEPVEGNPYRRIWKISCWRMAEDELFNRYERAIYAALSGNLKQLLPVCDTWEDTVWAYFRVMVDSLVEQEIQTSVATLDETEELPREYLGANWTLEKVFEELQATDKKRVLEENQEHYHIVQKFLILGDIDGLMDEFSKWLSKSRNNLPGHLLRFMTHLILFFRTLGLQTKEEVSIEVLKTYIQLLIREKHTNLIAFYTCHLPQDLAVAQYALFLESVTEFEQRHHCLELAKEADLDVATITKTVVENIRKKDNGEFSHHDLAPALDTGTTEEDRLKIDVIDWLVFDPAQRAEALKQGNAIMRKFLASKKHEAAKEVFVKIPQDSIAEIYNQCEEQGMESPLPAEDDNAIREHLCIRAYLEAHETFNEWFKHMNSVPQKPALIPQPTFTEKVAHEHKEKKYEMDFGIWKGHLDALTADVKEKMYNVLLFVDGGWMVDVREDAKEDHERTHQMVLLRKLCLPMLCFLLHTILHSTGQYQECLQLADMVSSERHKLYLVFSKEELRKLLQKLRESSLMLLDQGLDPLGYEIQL

[1] = compound: C/C(=N\NC(=O)C1=CC(=CC=C1)S(=O)(=O)N2CCOCC2)/C3=C(C=CC(=C3)Cl)O
Procedure, shortened: as §1

[2] = compound: C1=CC(=CC=C1C2=NC3=C(N2)C=C(C=C3)C(=O)N)OC4=CC=C(C=C4)Cl
Procedure, shortened: as §1

[3] = compound: C1=CC2=C(C=CC(=C2)/C=C\3/C(=O)NC(=NCC4=CC=CS4)S3)N=C1
Procedure, shortened: as §1

[4] = compound: C1=CC2=NC=CN=C2C=C1/C=C/3\C(=O)NC(=O)S3
Procedure, shortened: as §1

[5] = compound: C1=CC=C(C=C1)C2=NC(=C(N2)C3=CC=NC=C3)C4=CC(=C(C=C4)Cl)O
Procedure, shortened: as §1

[6] = compound: C1=CC=C2C(=C1)C3=NNC4=CC=CC(=C43)C2=O
Procedure, shortened: as §1

[7] = compound: C1CCN(C1)C(=O)NC2=CC=CC(=C2)NC3=NC=C(C(=N3)NCCC4=CN=CN4)Br
Procedure, shortened: as §1

[8] = compound: C1CN(CCC1(CC2=CC=C(C=C2)Cl)N)C3=NC=NC4=C3C=CN4
Procedure, shortened: as §1

IRAK-1-4 Inhibitor I = compound: C1COCCN1CCN2C3=CC=CC=C3N=C2NC(=O)C4=CC(=CC=C4)[N+](=O)[O-] [IRAK-1-4 Inhibitor I]
Procedure, shortened: as §1

ibrutinib = compound: C=CC(=O)N1CCC[C@@H](n2nc(-c3ccc(Oc4ccccc4)cc3)c3c(N)ncnc32)C1 [ibrutinib]
Procedure, shortened: as §1

[9] = compound: CC(=O)c1cnc2ccc(-c3cc(Cl)c(O)c(Cl)c3)nc2c1N[C@H]1CC[C@H](CN(C)C)CC1
Procedure, shortened: as §1

ralimetinib = compound: CC(C)(C)Cn1c(N)nc2ccc(-c3[nH]c(C(C)(C)C)nc3-c3ccc(F)cc3)nc21 [ralimetinib]
Procedure, shortened: as §1

[10] = compound: CC(C)(O)CC(=O)NCCn1ccc2ncnc(Nc3ccc(Oc4cccc(C(F)(F)F)c4)c(Cl)c3)c21
Procedure, shortened: as §1

[11] = compound: CC(C)C1=C2N=C(C=C(N2N=C1)NCC3=CC=CC=C3)NCCCCCCN
Procedure, shortened: as §1

[12] = compound: CC1=C(C(CC(=O)N1)C2=CC=C(C=C2)C(F)(F)F)C(=O)NC3=C(C=C4C(=C3)C=NN4)F
Procedure, shortened: as §1

[13] = compound: CC1=C(C2=C(C=C1)C(=O)C3=CC=CC=C3N2CCCN)C
Procedure, shortened: as §1

[14] = compound: CC1=C(C=C(C=C1)NC(=O)C2=CC(=CC=C2)C(C)(C)C#N)NC3=CC4=C(C=C3)N=CN(C4=O)C
Procedure, shortened: as §1

[15] = compound: CC1=C(C=C(C=C1)NC(=O)C2=CC(=CC=C2)N(C)C)NC(=O)C3=CC=C(C=C3)O
Procedure, shortened: as §1

[16] = compound: CC1=CC=C(C=C1)SC2=C3C=C(SC3=CN=C2)C(=O)N
Procedure, shortened: as §1

Row | Target | log2 fold change (erlotinib) | log2 fold change [1] | log2 fold change [2] | log2 fold change [3] | log2 fold change [4] | log2 fold change [5] | log2 fold change [6] | log2 fold change [7] | log2 fold change [8] | log2 fold change (IRAK-1-4 Inhibitor I) | log2 fold change (ibrutinib) | log2 fold change [9] | log2 fold change (ralimetinib) | log2 fold change [10] | log2 fold change [11] | log2 fold change [12] | log2 fold change [13] | log2 fold change [14] | log2 fold change [15] | log2 fold change [16]
1 | NSMCE3 (UniProt Q96MG7) | inactive: 0.065 | inactive: 0.016 | inactive: 0.036 | inactive: 0 | inactive: -0.022 | inactive: -0.031 | inactive: -0.038 | inactive: -0.059 | inactive: 0.067 | inactive: -0.017 | inactive: -0.002 | inactive: 0.013 | inactive: 0 | inactive: -0.03 | inactive: -0.003 | inactive: 0.015 | inactive: -0.064 | inactive: 0.02 | inactive: 0.032 | inactive: 0.029
2 | NOP16 (UniProt Q9Y3C1) | inactive: 0.035 | inactive: 0.009 | inactive: 0.038 | inactive: -0.025 | inactive: -0.012 | inactive: 0.005 | inactive: 0.037 | inactive: 0.023 | inactive: -0.018 | inactive: -0.002 | inactive: -0.007 | inactive: -0.015 | inactive: 0.003 | inactive: 0.002 | inactive: -0.027 | inactive: 0.011 | inactive: 0.04 | inactive: -0.036 | inactive: -0.023 | inactive: 0.014
3 | NOSTRIN (UniProt Q8IVI9) | inactive: -0.031 | inactive: 0.032 | inactive: 0.132 | inactive: 0.072 | inactive: -0.008 | inactive: -0.013 | inactive: 0.07 | inactive: -0.055 | inactive: -0.065 | inactive: 0.001 | inactive: 0.025 | inactive: -0.009 | inactive: 0.012 | inactive: -0.041 | inactive: -0.125 | inactive: -0.032 | inactive: -0.039 | inactive: -0.019 | inactive: 0.088 | inactive: 0.012
4 | NT5DC2 isoform 2 (UniProt Q9H857) | inactive: 0.027 | inactive: 0.008 | inactive: 0.068 | inactive: 0.03 | active: 0.505 | inactive: -0.059 | inactive: 0.04 | inactive: -0.015 | inactive: 0.036 | inactive: 0.002 | inactive: 0 | inactive: -0.066 | inactive: -0.015 | inactive: -0.026 | inactive: 0 | inactive: -0.002 | inactive: -0.015 | inactive: 0.008 | inactive: 0.04 | inactive: -0.025
5 | NUDCD3 (UniProt Q8IVD9) | inactive: -0.013 | inactive: 0.014 | inactive: -0.009 | inactive: -0.019 | inactive: -0.009 | inactive: -0.021 | inactive: 0.024 | inactive: -0.003 | inactive: -0.019 | inactive: 0.001 | inactive: 0.002 | inactive: -0.007 | inactive: 0.021 | inactive: 0 | inactive: -0.057 | inactive: 0.005 | inactive: 0.009 | inactive: 0.034 | inactive: -0.009 | inactive: 0.004
6 | NOL11 (UniProt Q9H8H0) | inactive: 0.045 | inactive: -0.05 | inactive: -0.007 | inactive: 0.025 | inactive: -0.026 | inactive: -0.014 | inactive: -0.016 | inactive: -0.026 | inactive: 0.013 | inactive: 0.021 | inactive: -0.025 | inactive: 0.251 | inactive: 0.019 | inactive: -0.027 | inactive: -0.047 | inactive: 0.039 | inactive: -0.082 | inactive: 0.054 | inactive: -0.004 | inactive: -0.001
7 | NOA1 (UniProt Q8NC60) | inactive: 0.001 | inactive: 0.003 | inactive: -0.007 | inactive: -0.051 | inactive: -0.024 | inactive: 0.033 | inactive: -0.088 | inactive: 0.07 | inactive: -0.046 | inactive: -0.032 | inactive: -0.024 | inactive: -0.025 | inactive: 0.002 | inactive: 0.034 | inactive: 0.005 | inactive: -0.064 | inactive: -0.02 | inactive: 0.002 | inactive: -0.001 | inactive: 0.02
8 | NOL9 (UniProt Q5SY16) | inactive: 0.066 | inactive: 0.022 | inactive: -0.028 | inactive: 0.014 | inactive: 0.016 | inactive: -0.034 | inactive: -0.01 | inactive: -0.002 | inactive: 0.01 | inactive: 0.01 | inactive: -0.027 | inactive: -0.043 | inactive: 0.002 | inactive: 0.004 | inactive: 0.036 | inactive: 0.023 | inactive: -0.026 | inactive: -0.008 | inactive: 0.041 | inactive: -0.023
9 | NOC3L (UniProt Q8WTT2) | inactive: -0.011 | inactive: -0.209 | inactive: 0.032 | inactive: 0.039 | inactive: -0.016 | inactive: 0.029 | inactive: 0.052 | inactive: -0.002 | inactive: 0.015 | inactive: -0.108 | inactive: -0.027 | inactive: 0.009 | inactive: 0.004 | inactive: -0.023 | inactive: -0.003 | inactive: -0.061 | inactive: 0.049 | inactive: 0.08 | inactive: -0.008 | inactive: 0.016
10 | NOMO2 (UniProt Q5JPE7) | inactive: 0 | inactive: -0.051 | inactive: -0.035 | inactive: -0.01 | inactive: 0.025 | inactive: -0.006 | inactive: -0.022 | inactive: 0.007 | inactive: 0.026 | inactive: 0.012 | inactive: 0.026 | inactive: 0.014 | inactive: 0.021 | inactive: 0.002 | inactive: -0.03 | inactive: 0.012 | inactive: -0.002 | inactive: 0.019 | inactive: -0.005 | inactive: 0.006
11 | NQO2 (UniProt P16083) | inactive: -0.013 | inactive: -0.004 | inactive: 0 | inactive: 0.002 | inactive: -0.04 | inactive: -0.015 | inactive: 0.026 | inactive: -0.003 | inactive: 0.013 | inactive: 0.032 | inactive: 0.042 | inactive: 0.009 | inactive: 0.005 | inactive: -0.018 | inactive: 0.024 | inactive: 0.006 | inactive: -0.003 | inactive: -0.027 | inactive: -0.035 | inactive: -0.012
12 | NUP133 (UniProt Q8WUM0) | inactive: 0.01 | inactive: -0.016 | inactive: 0.006 | inactive: 0.019 | inactive: -0.018 | inactive: 0.017 | inactive: -0.023 | inactive: -0.04 | inactive: 0.015 | inactive: 0.026 | inactive: 0.016 | inactive: -0.015 | inactive: 0.006 | inactive: 0.045 | inactive: -0.01 | inactive: 0.064 | inactive: -0.02 | inactive: 0.01 | inactive: 0.009 | inactive: -0.002
13 | NSUN5 isoform 2 (UniProt Q96P11) | inactive: -0.007 | inactive: -0.016 | inactive: -0.074 | inactive: 0.07 | inactive: 0.004 | inactive: -0.006 | inactive: -0.041 | inactive: 0.009 | inactive: 0.024 | inactive: -0.047 | inactive: 0.011 | inactive: 0.04 | inactive: 0.036 | inactive: -0.019 | inactive: -0.009 | inactive: 0.014 | inactive: 0.03 | inactive: -0.023 | inactive: 0.027 | inactive: -0.005
14 | NUDT9 (UniProt Q9BW91) | inactive: 0.01 | inactive: -0.059 | inactive: 0.055 | inactive: -0.057 | inactive: -0.015 | inactive: -0.022 | inactive: 0.011 | inactive: 0.007 | inactive: 0.012 | inactive: 0.012 | inactive: -0.012 | inactive: 0.005 | inactive: 0.022 | inactive: -0.055 | inactive: -0.002 | inactive: -0.006 | inactive: -0.002 | inactive: 0.007 | inactive: 0.008 | inactive: -0.023
15 | NOSIP (UniProt Q9Y314) | inactive: 0.012 | inactive: -0.001 | inactive: 0.023 | inactive: 0.022 | inactive: 0.011 | inactive: 0.025 | inactive: -0.019 | inactive: 0.003 | inactive: 0.022 | inactive: 0.01 | inactive: 0.028 | inactive: 0.037 | inactive: 0 | inactive: 0.009 | inactive: -0.014 | inactive: -0.009 | inactive: 0 | inactive: 0.047 | inactive: 0.027 | inactive: -0.009
16 | NUP107 (UniProt P57740) | inactive: 0.028 | inactive: 0.035 | inactive: 0.001 | inactive: 0.028 | inactive: -0.021 | inactive: 0.003 | inactive: -0.012 | inactive: 0.005 | inactive: 0.018 | inactive: -0.015 | inactive: -0.001 | inactive: -0.013 | inactive: 0.031 | inactive: 0.059 | inactive: -0.021 | inactive: 0.044 | inactive: -0.037 | inactive: -0.004 | inactive: 0.03 | inactive: 0.007

Entries 3 through 4, reprinted for reference:
Row | Target | log2 fold change (erlotinib) | log2 fold change [1] | log2 fold change [2] | log2 fold change [3] | log2 fold change [4] | log2 fold change [5] | log2 fold change [6] | log2 fold change [7] | log2 fold change [8] | log2 fold change (IRAK-1-4 Inhibitor I) | log2 fold change (ibrutinib) | log2 fold change [9] | log2 fold change (ralimetinib) | log2 fold change [10] | log2 fold change [11] | log2 fold change [12] | log2 fold change [13] | log2 fold change [14] | log2 fold change [15] | log2 fold change [16]
3 | NOSTRIN (UniProt Q8IVI9) | inactive: -0.031 | inactive: 0.032 | inactive: 0.132 | inactive: 0.072 | inactive: -0.008 | inactive: -0.013 | inactive: 0.07 | inactive: -0.055 | inactive: -0.065 | inactive: 0.001 | inactive: 0.025 | inactive: -0.009 | inactive: 0.012 | inactive: -0.041 | inactive: -0.125 | inactive: -0.032 | inactive: -0.039 | inactive: -0.019 | inactive: 0.088 | inactive: 0.012
4 | NT5DC2 isoform 2 (UniProt Q9H857) | inactive: 0.027 | inactive: 0.008 | inactive: 0.068 | inactive: 0.03 | active: 0.505 | inactive: -0.059 | inactive: 0.04 | inactive: -0.015 | inactive: 0.036 | inactive: 0.002 | inactive: 0 | inactive: -0.066 | inactive: -0.015 | inactive: -0.026 | inactive: 0 | inactive: -0.002 | inactive: -0.015 | inactive: 0.008 | inactive: 0.04 | inactive: -0.025

Source: the supplement of paper PMC10849652
